According to PMC8659110 (Molecules, 2021):

Key:
[1] = general procedure: Fmoc solid-phase peptide synthesis; Fmoc-Arg(Pbf)-Wang resin; Fmoc-Asp(OtBu)-Wang resin; HBTU/NMM; conditions: for isolated mass / isolated yield: whole synthesis; for isolated yield: scale of the general procedure 100 μmol
[2] = general procedure: Fmoc solid-phase peptide synthesis; Fmoc-Asp(OtBu)-Wang resin; HBTU/NMM; conditions: whole synthesis; for isolated yield: scale of the general procedure 100 μmol

## H-KDKPPR-OH
[1]
  isolated mass: 32.5 mg
  isolated yield: 44%

## K(Cy5)DKPPR
[1]
  isolated mass: 20 mg
[1]; overall
  isolated yield: 16.6%

## K(Cy5)RPKPD
[2]
  isolated mass: 18 mg
[2]; overall
  isolated yield: 15%

## NODAGA-K(Cy5)DKPPR
[1]
  isolated mass: 42 mg
  isolated yield: 27%

## NODAGA-K(Cy5)RPKPD
[2]
  isolated mass: 44 mg
  isolated yield: 28.2%

## ^natGa-NODAGA-K(Cy5)DKPPR
[1]; late stage modification step
  step yield: 83.17%
